# Measurements: PMC7819943, “Rice protein-binding microarrays: a tool to detect cis-acting elements near promoter regions in rice”
# Protein sequences, listed by entry. Tags and fused reporters are not part of them.
# UniProt Q0JBA9, entry or part of it: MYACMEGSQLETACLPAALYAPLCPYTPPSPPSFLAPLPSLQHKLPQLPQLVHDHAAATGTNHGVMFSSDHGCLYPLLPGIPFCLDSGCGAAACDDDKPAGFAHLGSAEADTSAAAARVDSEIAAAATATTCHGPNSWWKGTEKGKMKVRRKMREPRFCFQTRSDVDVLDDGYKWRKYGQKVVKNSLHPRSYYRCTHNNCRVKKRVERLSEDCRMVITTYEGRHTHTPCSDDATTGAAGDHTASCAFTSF
# The other results are listed elsewhere or left out.
# Target: OsWRKY34 (Oryza sativa, UniProt Q0JBA9 1-250)
# Experiment: protein-binding microarray (RPBM); PBS, 2% BSA, 51.3 ng/ul salmon testes DNA, 50 uM zinc acetate, 200 nM TF, 25 C, 1 h; high values mean tight binding
# Conditions: protein: recombinant; tags: N-terminal polyhistidine and DsRed monomer fusion (pET32a); label: CyDye5-dUTP incorporated in the synthesized complementary strand; 3' TTTTT single-stranded linker to array surface; dsDNA, one strand shown
# Method in brief: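 Ni–NTA purification followed expression in E. coli BL21-CodonPlus of transcription factors fused N-terminally to a polyhistidine tag and DsRed. At 200 nM in PBS with 2% BSA, salmon testes DNA and 50 µM zinc acetate, the protein was incubated for 1 h at 25 °C with a custom Agilent array that had been primer-extended with Cy5-dUTP and blocked with 2% BSA. After washing, the array was read on an Axon 4000B scanner. The binding signal is per-feature fluorescence intensity in arbitrary units.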
row,Sequence,binding signal
1,TGCTTCCGTCTTTCGGCGCAACACTGTCCATCAGATCCTGCGGAGTCACCTAGTGCAG,9750 fluorescence intensity (a.u.)
2,TGTTTGTCGTGACTTAGCTTAGTTGTTGCTGTTGTTGAGCCGGAGTCACCTAGTGCAG,10500 fluorescence intensity (a.u.)
3,CATACCATATTTGTGGATACACTTTGTACATAGGCCGTGTCGGAGTCACCTAGTGCAG,8340 fluorescence intensity (a.u.)
4,GCTCACCATCGTCACACTGGCTCACTGCTGCATTCCGCATCGGAGTCACCTAGTGCAG,9740 fluorescence intensity (a.u.)
5,GAGGCACAGAAACTGTCATCCTTGGCCATTGCTAGCTGCTCGGAGTCACCTAGTGCAG,9480 fluorescence intensity (a.u.)
6,GACCAGTCTAGTTCCAGTGCATCTCACTTCTCGCACCTCGCGGAGTCACCTAGTGCAG,10700 fluorescence intensity (a.u.)
7,ACCGTTTTCATCCACTCCAGTCGACCAAAGCATCAAAATACGGAGTCACCTAGTGCAG,9640 fluorescence intensity (a.u.)
8,ATGGTGTTTTTTTGCCTATTCAAAGCATTATGTGATGTTTCGGAGTCACCTAGTGCAG,10100 fluorescence intensity (a.u.)
9,GGAGTGATCCTCCTTTTGTCTCTCCTGCAGTATTTCTTAACGGAGTCACCTAGTGCAG,8970 fluorescence intensity (a.u.)
10,CCACACACCAAACCCTCTGTCCTCCGGCCGGTTCATCTTGCGGAGTCACCTAGTGCAG,8410 fluorescence intensity (a.u.)
11,ATATATTTTGGGATGTATCTAGTCTTTTTTTTTGGTTGACCGGAGTCACCTAGTGCAG,8700 fluorescence intensity (a.u.)
12,TCTTCCACTAAATCTCATCACACACTCCACACCTTTCTGCCGGAGTCACCTAGTGCAG,9040 fluorescence intensity (a.u.)
13,GTTTCACAGGAACTAGGTTAACATTTTCACGAGTCTTTTCCGGAGTCACCTAGTGCAG,8140 fluorescence intensity (a.u.)
14,AGAGTATTTGCATTTTTTTTGGGCTTTTAACTATTTGCCACGGAGTCACCTAGTGCAG,9540 fluorescence intensity (a.u.)
15,TTATTCGTGCGTGCATTCATTGAAACTATATCGTTCATAACGGAGTCACCTAGTGCAG,8030 fluorescence intensity (a.u.)
16,AAACGCCATCTCCACCGTCGCCTCGCCTCGCCTCCACCTCCGGAGTCACCTAGTGCAG,9430 fluorescence intensity (a.u.)
17,TTCCTGCTCTGTCCGTGCTCGACTCAATTCATTGTCAACCCGGAGTCACCTAGTGCAG,8690 fluorescence intensity (a.u.)
18,ACCTACTCTTCACTTATTTGGTTATTCCCAATCTCTCTCTCGGAGTCACCTAGTGCAG,8690 fluorescence intensity (a.u.)
19,TTTCCTAAATATTGACTTTCTGTTGCCTGGTTGGTTTGAGCGGAGTCACCTAGTGCAG,9720 fluorescence intensity (a.u.)
20,CCTGTCATACACACACAACTTTTTAGTCACATCATCTCCACGGAGTCACCTAGTGCAG,12100 fluorescence intensity (a.u.)
21,CAAGTTATTGACTTTTGGTCATGATGTTACTATTCATCTTCGGAGTCACCTAGTGCAG,9120 fluorescence intensity (a.u.)

# 2 consecutive entries out of the list so far, for reference:
row,Sequence,binding signal
4,GCTCACCATCGTCACACTGGCTCACTGCTGCATTCCGCATCGGAGTCACCTAGTGCAG,9740 fluorescence intensity (a.u.)
5,GAGGCACAGAAACTGTCATCCTTGGCCATTGCTAGCTGCTCGGAGTCACCTAGTGCAG,9480 fluorescence intensity (a.u.)

# The list goes on.

row,Sequence,binding signal
1,TGACTGAATAGGATATACATATACTCTCCTTTCTTTTATTCGGAGTCACCTAGTGCAG,8760 fluorescence intensity (a.u.)
2,AGGGTGGTTTTTAGTGACATGGTTCGTTGACCTAATCCAACGGAGTCACCTAGTGCAG,8950 fluorescence intensity (a.u.)
3,CTACCACCCTCACTCGCGAGCTCGGCTCAGCTCAGCTCACCGGAGTCACCTAGTGCAG,8060 fluorescence intensity (a.u.)
4,CCTTCTCAAAGGGTGTGTTTTGTCCATTTGTAAAGTTGTACGGAGTCACCTAGTGCAG,8060 fluorescence intensity (a.u.)
5,CCCGCGCCACCAACTTCGCCTCGGCGAGGCAAACCCATTTCGGAGTCACCTAGTGCAG,8330 fluorescence intensity (a.u.)
6,CATCACCCCAATGCAGGTCTAGTTAGTGTTTGTAGCTTGTCGGAGTCACCTAGTGCAG,8060 fluorescence intensity (a.u.)
7,ACCGCATCGCTGCCTGCCGCCGAGAGGCGCCCCTCATGAACGGAGTCACCTAGTGCAG,9050 fluorescence intensity (a.u.)
8,ACCCGTAACTCGTGGATCCCATGTCAGCTACCCACGTTTTCGGAGTCACCTAGTGCAG,10300 fluorescence intensity (a.u.)
9,CGCCGCCGCCCGCCATCCGCCGTTGGCCACCCCGCCCCGTCGGAGTCACCTAGTGCAG,10000 fluorescence intensity (a.u.)
10,CTCTAAAATCCATCCTCTTCTTTTTCTTTTTCTTTTTTATCGGAGTCACCTAGTGCAG,8410 fluorescence intensity (a.u.)
11,GATGGTTTGTGCCCTTTTCCCCTTAGCATAGCTGTGTATTCGGAGTCACCTAGTGCAG,9980 fluorescence intensity (a.u.)
12,CTCACGTTGCCCACTCCCTCCCCTGGACGCGTCGCGCTGCCGGAGTCACCTAGTGCAG,10000 fluorescence intensity (a.u.)
13,AGACCAGAACATCAGCCCGCTACCATATACAAGTGCATAGCGGAGTCACCTAGTGCAG,9460 fluorescence intensity (a.u.)
14,TTCGAATATCCATGACTCGCTTGATCTCCACCGCCCGTTTCGGAGTCACCTAGTGCAG,8380 fluorescence intensity (a.u.)
15,TACTCACCTTTTTCACTACATTGTGAATGTCCTAATGACTCGGAGTCACCTAGTGCAG,9260 fluorescence intensity (a.u.)
16,ATCTGCCTAACGTAAAATGCACTATATTCTGTTTTGTTCTCGGAGTCACCTAGTGCAG,8370 fluorescence intensity (a.u.)
17,GTTCCTGTACTCTTTACCATGCCGAAAGCGACCACGTTGACGGAGTCACCTAGTGCAG,9850 fluorescence intensity (a.u.)
18,CATGTAATTCTCTTCACTTTTGCTTGTTTGGGTTGTGAAACGGAGTCACCTAGTGCAG,10100 fluorescence intensity (a.u.)
19,TGTATGTACGTACGTATGTACTGTATTCATTAGGGTGGGACGGAGTCACCTAGTGCAG,9030 fluorescence intensity (a.u.)
20,CATTGTAGCACTGACGTTTAACACACTTTCAATTCGAATCCGGAGTCACCTAGTGCAG,8180 fluorescence intensity (a.u.)
21,TTTATTTCATCTCCTACGTTTTCATTTGCCATGTGCGAACCGGAGTCACCTAGTGCAG,10200 fluorescence intensity (a.u.)
